The nature of this data set: general procedure: solution-phase peptide synthesis; DCCI/HOBt; azide method; active esters (ONp). The following applies: acetate.

Strings that start with PEPTIDE1 are HELM notation: dots part the residues, brackets hold end groups and non-standard residues. *: point of attachment. Cbz = O=C(OCc1ccccc1)*; Boc = CC(C)(C)OC(=O)*; OtBu = CC(C)(C)O*

Take Boc-GGFMTSE(OtBu)K(Boc)-OMe: the step yield (coupling step) was 61%.
As for H-SQTPLVTL-OtBu, the step yield (coupling step) is listed as 72% and the step yield (late stage modification step) is listed as 86%.
Regarding Boc-GGFMTSE(OtBu)K(Boc)-OH, the step yield (late stage modification step) amounted to 78%.
On to H-TSE(OtBu)K(Boc)-OMe, for which the step yield runs as follows: (coupling step) 61.9%; (late stage modification step) 99%.
“PEPTIDE1{G.G.F.M.T.S.E.K.S.Q.T.P.L.V.T.L}$$$$V2.0” registered a step yield (coupling step) of 77%.
H-LVTL-OtBu: under “coupling step”, the step yield is 77%.
The substance Cbz-SQTP-OH displayed a step yield (late stage modification step) of 90%.

The record behind these values is patent US4256736A (Akzona Incorporated, priority 1978, dated 1981).
